Experimental data from the supplement of paper PMC8104966.
The list shows a part of the results. This data set is noisy: repeats of one test often differ as much as different tests do.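 U2OS cells expressing ACE2 were combined with U2OS cells expressing full-length spike, and imaging quantified fusion as the fraction of nuclei displaying both cell types' fluorescent markers. Non-toxic compounds with a fusion z-score under -3, i.e., over three standard deviations below the plate's DMSO wells, are called inhibitory hits.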

test system: U2OS ACE2 x SARS-CoV-2 spike co-culture; experiment: cell-cell fusion (fraction fused) z-score vs plate DMSO control; higher = more fusion; details: 30 µM; 5 h; toxicity class: non-toxic, passed QC

| Compound | cell-cell fusion (z-score) |
| --- | --- |
| N=C(N)NCCC[C@@H](NC(=O)[C@@H]1CCCN1C(=O)[C@@H]1CSSCCC(=O)N[C@@H](Cc2ccc(O)cc2)C(=O)N[C@@H](Cc2ccccc2)C(=O)N[C@@H](CCC(N)=O)C(=O)N[C@@H](CC(N)=O)C(=O)N1)C(=O)NCC(N)=O [Desmopressin] | inactive: 2.18 |
| CCCn1c(=O)c2c(ncn2C)n(CCC)c1=O [1,3-Dipropyl-7-methylxanthine] | inactive: 1.93 |
| CC1=C2[C@H]3OC(=O)[C@@H](C)[C@@H]3CC[C@@]2(C)C=CC1=O | inactive: 2.02 |
| COC(=O)C1=CO[C@@H](C)C2CN3CC[C@]4(C(=O)Nc5ccccc54)C3C[C@H]12 (stereo not given in full) | inactive: 1.41 |
| C[C@]12CC[C@@H]3c4ccc(OC(=O)N(CCCl)CCCl)cc4CC[C@H]3[C@@H]1CC[C@@H]2OP(=O)([O-])[O-].[Na+].[Na+] [Estramustine phosphate sodium] | inactive: 2.09 |
| CN1CCc2cccc(Cl)c2CC1.Cl | inactive: 2.18 |
| CC(=O)N[C@@H](Cc1c[nH]c2ccccc12)C(=O)OCc1cc(C(F)(F)F)cc(C(F)(F)F)c1 | inactive: 2.68 |
| CCn1cc(C(=O)[O-])c(=O)c2cc3c(cc21)OCO3.[K+] | inactive: 2.6 |
| CN1C[C@@H]2c3ccccc3Oc3ccc(Cl)cc3[C@H]2C1.O=C(O)/C=C\C(=O)O [Asenapine Maleate] | inactive: 1.42 |
| NCCC(=O)N[C@@H](Cc1c[nH]cn1)C(=O)O | inactive: 1.73 |
| C/C=C/C(=O)N(CC)c1ccccc1C | inactive: 2.05 |
| O=C(Nc1ccc2[nH]ncc2c1)C1CCC1 [Rhodblock 6] | inactive: 0.631 |
| C[C@@H](O)[C@H]1C(=O)N2C(C(=O)O)=C(SCCNC=N)C[C@H]12.O | inactive: -0.0539 |
| C#C[C@]1(O)CC[C@H]2[C@@H]3CCC4=Cc5oncc5CC4(C)[C@H]3CCC21C (stereo not given in full) [Danazol] | inactive: 3.12 |
| O=[N+]([O-])c1cccc2c(Br)n[nH]c12 [3-Bromo-7-nitroindazole] | inactive: 1.64 |
| CN1C(=O)CCS(=O)(=O)C1c1ccc(Cl)cc1 (stereo not given) [Chlormezanone] | inactive: 3.02 |
| CN1C(=O)CCS(=O)(=O)C1c1ccc(Cl)cc1 (stereo not given) | inactive: 1.01 |
| O=C(O)CC(O)(CC(=O)O)C(=O)O [Citric acid] | inactive: 1.91 |

| Compound | cell-cell fusion (z-score) |
| --- | --- |
| Cc1c(-c2ccccc2)oc2c(C(=O)OCCN3CCCCC3)cccc2c1=O.Cl [Flavoxate hydrochloride] | inactive: 2.17 |
| CNC[C@H](O)c1cccc(O)c1.Cl [Phenylephrine hydrochloride] | inactive: -0.785 |
| CC(O)c1ccc(S(=O)(=O)NC(=O)NC2CCCCC2)cc1 (stereo not given) [Hydroxyhexamide] | inactive: 1.87 |
| O=C(O)c1ccc2c(c1)OCO2 | inactive: 2.57 |
| CC(C)(C)NCC(O)c1ccc(O)c(CO)c1.CC(C)(C)NCC(O)c1ccc(O)c(CO)c1.O=S(=O)(O)O (stereo not given) [Salbutamol Sulfate] | inactive: -0.46 |
| Cc1ccnc2c1NC(=O)c1cccnc1N2C1CC1 [Nevirapine] | inactive: 1.7 |
| N[C@@H](C(=O)O)[C@@H](O)[C@H](O)[C@H](O)CO | inactive: 1.75 |
| CN(C)CCC(c1ccc(Cl)cc1)c1ccccn1.O=C(O)/C=C\C(=O)O (stereo not given) [Chlorpheniramine maleate] | inactive: 4.47 |
| CC(=O)N[C@@H](CC(=O)O)C(=O)N[C@@H](CCC(=O)O)C(=O)O | inactive: 1.03 |
| NCC[C@H](O)C(=O)N[C@@H]1C[C@H](N)[C@@H](O[C@H]2O[C@H](CN)[C@@H](O)[C@H](O)[C@H]2O)[C@H](O)[C@H]1O[C@H]1O[C@H](CO)[C@@H](O)[C@H](N)[C@H]1O [Amikacin] | inactive: 2 |
| CC(=O)O[C@@H]1CC2C(C)(C)C(=O)C=C[C@]2(C)C2CC[C@]3(C)C(=CC(=O)O[C@H]3c3ccoc3)[C@@]21C (stereo not given in full) | inactive: 0.963 |
| Cc1nnc(C(C)C)n1[C@@H]1C[C@H]2CC[C@@H](C1)N2CC[C@H](NC(=O)C1CCC(F)(F)CC1)c1ccccc1 [Maraviroc] | inactive: 4.26 |
| CCCNCC(O)COc1ccccc1C(=O)CCc1ccccc1 (stereo not given) [Propafenone] | inactive: 2.54 |
| CCCN(CCC)S(=O)(=O)c1ccc(C(=O)O)cc1 [Probenecid] | inactive: 3.21 |
| O=c1[nH]cc(F)c(=O)[nH]1 [Adrucil (Fluorouracil)] | inactive: 1.53 |
| COc1ccccc1OCC(O)CN1CCN(CC(=O)Nc2c(C)cccc2C)CC1 (stereo not given) [Ranolazine] | inactive: 2.05 |
| CC1COc2c(N3CCN(C)CC3)c(F)cc3c(=O)c(C(=O)O)cn1c23.NCCO (stereo not given) | inactive: 2.65 |

Random excerpt: two records from the list.

| Compound | cell-cell fusion (z-score) |
| --- | --- |
| NCC[C@H](O)C(=O)N[C@@H]1C[C@H](N)[C@@H](O[C@H]2O[C@H](CN)[C@@H](O)[C@H](O)[C@H]2O)[C@H](O)[C@H]1O[C@H]1O[C@H](CO)[C@@H](O)[C@H](N)[C@H]1O [Amikacin] | inactive: 2 |
| CC1COc2c(N3CCN(C)CC3)c(F)cc3c(=O)c(C(=O)O)cn1c23.NCCO (stereo not given) | inactive: 2.65 |
